# Several values for one entry are separate records, joined by “and”; a condition that tells them apart may be missing. Equal entries are not always repeated. Structures can show the parent of a compound that is named as a salt. ± gives the standard deviation of the averaged measurements. The list shows a part of the results. Repeats in this data set agree poorly, so a single value says little.
# Tested on: A549
# Experiment: surface PD-L1 immunofluorescence intensity relative to IFN-gamma-only control (ratio); higher = more PD-L1 expression
# Settings: 10 µM; exposure time 24 h; IFN-gamma 100 ng/mL
row,Structure (SMILES),surface PD-L1 immunofluorescence intensity
1,C=CCOC(Cn1ccnc1)c1ccc(Cl)cc1Cl (stereo unspecified) [Enilconazole],1.04
2,O=C(/C=C/c1ccc(O)c(O)c1)O[C@@H]1C[C@](O)(C(=O)O)C[C@@H](O)[C@H]1O [Chlorogenic acid],1.11
3,C[C@@H]1COC(Nc2ccc3ncnc(Nc4ccc(OCc5nccs5)c(Cl)c4)c3c2)=N1,0.982
4,N#C/C(=C\c1ccc(O)c(O)c1)C(=O)NCc1ccccc1,1.01 and 0.958
5,N=C(N)NCCN1CCCCCCC1 [Guanethidine sulfate],1.06
6,C#C[C@]1(O)CC[C@H]2[C@@H]3CCC4=CC(=O)CC[C@@H]4[C@H]3CC[C@@]21CC [Levonorgestrel (Levonelle)],0.947
7,C#C[C@]1(O)CC[C@H]2[C@@H]3CCC4=CC(=O)CC[C@@H]4[C@H]3CC[C@@]21CC [Norgestrel-(-)-D],1.08
8,CC(CN(C)C)CN1c2ccccc2Sc2ccccc21 (stereo unspecified) [Trimeprazine tartrate],0.932
9,CC1(C)[C@@H](OC(=O)CCC(=O)O)CC[C@]2(C)[C@H]3C(=O)C=C4[C@@H]5C[C@@](C)(C(=O)O)CC[C@]5(C)CC[C@@]4(C)[C@]3(C)CC[C@@H]12 [Carbenoxolone disodium salt],0.963
10,CCCCCCCCCCCCCCCC(=O)C1=C(O)[C@@H](CO)OC1=O,1.06
11,Cc1cc(C)c(S(=O)(=O)Nc2cccc(C(F)(F)F)c2)c(C)c1,1.01
12,CCCOc1ccc(C(=O)OCCN(CC)CC)cc1N [Proparacaine hydrochloride],0.994
13,COC(=O)Nc1ccc2[nH]cc(CCNC(C)=O)c2c1,0.983
14,CC(=O)N[C@@H](CSCC=C(C)CCC=C(C)CCC=C(C)C)C(=O)O [Acetyl-S-farnesyl-L-cysteine],1.02
15,CC1=C(/C=C/C(C)=C\C=C\C(C)=C\C(=O)O)C(C)(C)CCC1 [9-cis Retinoic acid],0.955
16,CC[C@@H](CO)NCCN[C@@H](CC)CO [Ethambutol dihydrochloride],0.86
17,CC[C@@H](CO)NCCN[C@@H](CC)CO [Ethambutol HCl],0.898
18,CC(CN(C)C)C(C)(O)Cc1ccc(Cl)cc1 (stereo unspecified) [Clobutinol hydrochloride],0.996
19,C[C@]1(Cn2ccnn2)[C@H](C(=O)O)N2C(=O)C[C@H]2S1(=O)=O [Tazobactam],0.986 ± 0.11
20,CC(=O)OCC(=O)[C@@]1(OC(C)=O)[C@@H](C)C[C@H]2[C@@H]3C[C@H](F)C4=CC(=O)C=C[C@]4(C)[C@@]3(F)[C@@H](O)C[C@@]21C [Diflorasone Diacetate],0.893
21,O=C(NCCN1CCCCC1)c1ccc(I)cc1 [N-[2-(Piperidinylamino)ethyl]-4-iodobenzamide],1.14

row,Structure (SMILES),surface PD-L1 immunofluorescence intensity
1,CC1=C(/C=C/C(=C/C=C/C(C)=C/C(=O)O)c2ccc(C)cc2)C(C)(C)CCC1,1.03
2,COc1ccccc1OCC(O)COC(N)=O (stereo unspecified) [Methocarbamol],0.989
3,Nc1ccn([C@@H]2CS[C@H](CO)O2)c(=O)n1 [Lamivudine],1.01
4,NC1CCN(c2nc3c(cc2F)c(=O)c(C(=O)O)cn3-c2ccc(F)cc2F)C1 (stereo unspecified) [Tosufloxacin hydrochloride],0.986
5,CCC(=O)Nc1cccc(Oc2nc(Nc3ccc(N4CCN(C)CC4)cc3OC)ncc2Cl)c1,0.942
6,Cn1ccc2cc3c(cc21)CCN3C(=O)Nc1cccnc1,0.973
7,O=C(/C=C/c1c(C(=O)O)[nH]c2cc(Cl)cc(Cl)c12)Nc1ccccc1 [Gavestinel],0.955
8,Clc1cccc2c1CN(C1=NCCN1)C2,1.07
9,O=C(C[S+]([O-])Cc1ccco1)NC/C=C\COc1cc(CN2CCCCC2)ccn1 (stereo unspecified) [Lafutidine],1.13
10,O=[N+]([O-])c1cccc2c[nH]nc12,0.939
11,COc1c(N2CCNC(C)C2)c(F)cc2c(=O)c(C(=O)O)cn(C3CC3)c12 (stereo unspecified) [Gatifloxacin],1.1
12,O=C(c1ccccc1)c1ccc2n1CCC2C(=O)O (stereo unspecified) [Ketorolac tromethamine],0.987
13,CCOC(=O)[C@@](C)(N)Cc1ccc(O)c(O)c1 [Methyldopate hydrochloride],0.999
14,CCN(CC)CCCC(C)Nc1nc(C)cc(Nc2ccc3nc(C)cc(N)c3c2)n1 (stereo unspecified),1.03 ± 0.059
15,O=C(Nc1ccccc1Br)N[C@@H]1CCN(c2ccc(C(F)(F)F)cn2)C1,0.987
16,COc1ccc(S(=O)(=O)N(CCO)c2ccccc2CN(C)C/C=C/c2ccc(Cl)cc2)cc1 [KN-93 Phosphate],1.03
17,CN(CC[C@@H](Oc1ccc(-c2ccccc2)cc1)c1ccc(F)cc1)CC(=O)O [ALX 5407 hydrochloride],0.962
18,CN(C)CC(c1ccc(O)cc1)C1(O)CCCCC1 (stereo unspecified) [Desvenlafaxine Succinate],1.01
19,O=C(NOCC(O)CO)c1cc(Br)c(F)c(F)c1Nc1ccc(I)cc1F (stereo unspecified),1
20,"c1ccc(CNc2ncnc3nc[nH]c23)cc1 [Aminopurine, 6-benzyl]",0.908
21,O=C(Nc1ccccc1)Nc1ccc(-c2ccc(C(=O)[C@@H]3CCC[C@H]3C(=O)O)cc2)cc1,1.03

row,Structure (SMILES),surface PD-L1 immunofluorescence intensity
1,OC[C@@H](O)[C@@H](O)[C@@H](O)CO [Ribitol (Adonitol)],1.04
2,CCN[C@@H]1C[C@H](N)[C@@H](O[C@H]2OC(CN)=CC[C@H]2N)[C@H](O)[C@H]1O[C@H]1OC[C@](C)(O)[C@H](NC)[C@H]1O [Netilmicin Sulfate],0.959
3,O=C1NC(=O)C(=Cc2ccc(-c3ccc(F)cc3)o2)S1 (stereo in doubt),0.983 ± 0.027
4,O=C1NC(=O)C(c2ccccc2)(c2ccccc2)N1 [Phenytoin],0.866
5,CC(C)(O)c1ccccc1CC[C@@H](SCC1(CC(=O)O)CC1)c1cccc(/C=C/c2ccc3ccc(Cl)cc3n2)c1 [Montelukast],1.05
6,CC(=O)Oc1cc2c(s1)CCN(C(C(=O)C1CC1)c1ccccc1F)C2 (stereo unspecified) [Prasugrel (Effient)],0.911
7,"Cn1cnc([N+](=O)[O-])c1Sc1ncnc2[nH]cnc12 [Azathioprine (Azasan, Imuran)]",0.998
8,Cn1cnc([N+](=O)[O-])c1Sc1ncnc2[nH]cnc12 [Azathioprine],0.971
9,CC(C)C(=O)Nc1ccc([N+](=O)[O-])c(C(F)(F)F)c1 [Flutamide],0.95
10,C/C(=N\NC(=O)C1C(=O)NCC1c1ccccc1)c1cccc(Br)c1 (stereo unspecified),0.934
11,NCCCCCCCCCCNS(=O)(=O)c1cccc2c(Cl)cccc12 [A-7 hydrochloride],1.04
12,CC(=O)OCC[N+](C)(C)C [Acetylcholine chloride],0.838
13,N[C@@H](Cc1cc(-c2ccc(Cl)cc2Cl)cc(CP(=O)(O)O)c1O)C(=O)O,1.02
14,CC1(C)CCC2=C(O1)c1ccccc1C(=O)C2=O,0.995
15,OCCN1C[C@H](O)[C@@H](O)[C@H](O)[C@H]1CO [Miglitol (Glyset)],0.995
16,OCCN1C[C@H](O)[C@@H](O)[C@H](O)[C@H]1CO [Miglitol],0.954
17,CCC(=O)NC1CCc2cccc(OC)c2C1 (stereo unspecified),1.15
18,S=C(NCc1ccc2c(c1)OCO2)N1CCN(c2ncnc3c2oc2ccccc23)CC1 [Amuvatinib (MP-470)],0.96
19,Cc1c(CCOc2ccc(C(=O)O)cc2)c2cc(Cl)ccc2n1C(c1ccccc1)c1ccccc1,1.03
20,N[C@@H](CSCCCO)C(=O)O [Fudosteine],1.11
21,C[C@H](CCC(=O)O)[C@H]1CC[C@H]2[C@@H]3CC[C@@H]4C[C@H](O)CC[C@]4(C)[C@H]3CC[C@]12C [Lithocholic acid],0.968 ± 0.02

# An excerpt of these results, as tab-separated lines.
row	Structure (SMILES)	surface PD-L1 immunofluorescence intensity
15	CC1=C(/C=C/C(C)=C\C=C\C(C)=C\C(=O)O)C(C)(C)CCC1 [9-cis Retinoic acid]	0.955
16	CC[C@@H](CO)NCCN[C@@H](CC)CO [Ethambutol dihydrochloride]	0.86
17	CC[C@@H](CO)NCCN[C@@H](CC)CO [Ethambutol HCl]	0.898
18	CC(CN(C)C)C(C)(O)Cc1ccc(Cl)cc1 (stereo unspecified) [Clobutinol hydrochloride]	0.996
19	C[C@]1(Cn2ccnn2)[C@H](C(=O)O)N2C(=O)C[C@H]2S1(=O)=O [Tazobactam]	0.986 ± 0.11
20	CC(=O)OCC(=O)[C@@]1(OC(C)=O)[C@@H](C)C[C@H]2[C@@H]3C[C@H](F)C4=CC(=O)C=C[C@]4(C)[C@@]3(F)[C@@H](O)C[C@@]21C [Diflorasone Diacetate]	0.893
21	O=C(NCCN1CCCCC1)c1ccc(I)cc1 [N-[2-(Piperidinylamino)ethyl]-4-iodobenzamide]	1.14
1	CC1=C(/C=C/C(=C/C=C/C(C)=C/C(=O)O)c2ccc(C)cc2)C(C)(C)CCC1	1.03
2	COc1ccccc1OCC(O)COC(N)=O (stereo unspecified) [Methocarbamol]	0.989
3	Nc1ccn([C@@H]2CS[C@H](CO)O2)c(=O)n1 [Lamivudine]	1.01
4	NC1CCN(c2nc3c(cc2F)c(=O)c(C(=O)O)cn3-c2ccc(F)cc2F)C1 (stereo unspecified) [Tosufloxacin hydrochloride]	0.986
5	CCC(=O)Nc1cccc(Oc2nc(Nc3ccc(N4CCN(C)CC4)cc3OC)ncc2Cl)c1	0.942
6	Cn1ccc2cc3c(cc21)CCN3C(=O)Nc1cccnc1	0.973
7	O=C(/C=C/c1c(C(=O)O)[nH]c2cc(Cl)cc(Cl)c12)Nc1ccccc1 [Gavestinel]	0.955
8	Clc1cccc2c1CN(C1=NCCN1)C2	1.07
9	O=C(C[S+]([O-])Cc1ccco1)NC/C=C\COc1cc(CN2CCCCC2)ccn1 (stereo unspecified) [Lafutidine]	1.13
10	O=[N+]([O-])c1cccc2c[nH]nc12	0.939
11	COc1c(N2CCNC(C)C2)c(F)cc2c(=O)c(C(=O)O)cn(C3CC3)c12 (stereo unspecified) [Gatifloxacin]	1.1
12	O=C(c1ccccc1)c1ccc2n1CCC2C(=O)O (stereo unspecified) [Ketorolac tromethamine]	0.987
13	CCOC(=O)[C@@](C)(N)Cc1ccc(O)c(O)c1 [Methyldopate hydrochloride]	0.999
14	CCN(CC)CCCC(C)Nc1nc(C)cc(Nc2ccc3nc(C)cc(N)c3c2)n1 (stereo unspecified)	1.03 ± 0.059
15	O=C(Nc1ccccc1Br)N[C@@H]1CCN(c2ccc(C(F)(F)F)cn2)C1	0.987

# (further entries)

row,Structure (SMILES),surface PD-L1 immunofluorescence intensity
1,CC(=O)SCC(Cc1ccccc1)C(=O)NCC(=O)OCc1ccccc1 (stereo unspecified) [Racecadotril],0.917
2,O=C1OC(OC(=O)c2cccnc2Nc2cccc(C(F)(F)F)c2)c2ccccc21 (stereo unspecified) [Talniflumate],1.02
3,COC(=O)C1=C(C)NC(C)=C(C(=O)OC(C)C)C1c1cccc2nonc12 (stereo unspecified) [Isradipine],0.963 ± 0.037
4,COc1cc(OC)c(C(=O)CCCCN2CCC3(CC2)NC(=O)NC3=O)cc1NS(=O)(=O)c1ccc(C(F)(F)F)cc1,1.08
5,O=C(O)CCCC[C@@H]1SC[C@@H]2NC(=O)N[C@@H]21 [Biotin (Vitamin B7)],1.01
6,O=C(O)CCCC[C@@H]1SC[C@@H]2NC(=O)N[C@@H]21 [Biotin],0.981
7,CCOC(=O)Nc1ccc(NCc2ccc(F)cc2)nc1N [Flupirtine maleate],1.02
8,COCC(=O)Nc1c(I)c(C(=O)NCC(O)CO)c(I)c(C(=O)N(C)CC(O)CO)c1I (stereo unspecified) [Iopromide],1.05
9,"C[C@@]1(O)CCOC(=O)C1 [Mevalonic-D, L acid lactone]",1.01
10,CC1COc2c(N3CCN(C)CC3)c(F)cc3c(=O)c(C(=O)O)cn1c23 (stereo unspecified) [Ofloxacin],0.923
11,O=c1[nH]cnc2c1ncn2[C@H]1CC[C@@H](CO)O1 [Didanosine],0.902
12,Fc1ccc([C@@H]2CCNC[C@H]2COc2ccc3c(c2)OCO3)cc1 [Paroxetine Hydrochloride],0.9
13,Nc1nc(O)c2ncn(CCC(CO)CO)c2n1 [Penciclovir],0.91
14,NC(CO)C(=O)NNCc1ccc(O)c(O)c1O (stereo unspecified) [Benserazide hydrochloride],1.02
15,Cc1cccc(C(=O)NCN2CCN(c3ccccc3C#N)CC2)c1,1.05
16,CN(C)CCCN1c2ccccc2CCc2ccccc21 [Imipramine hydrochloride],0.944
17,C[C@H]1COc2c(N3CCN(C)CC3)c(F)cc3c(=O)c(C(=O)O)cn1c23 [Levofloxacin (Levaquin)],0.967
18,NCCC[C@H](N)CC(=O)N[C@H]1CNC(=O)[C@H]([C@H]2C[C@H](O)NC(N)=N2)NC(=O)/C(=C/NC(N)=O)NC(=O)[C@H](CO)NC(=O)[C@H](CO)NC1=O [Viomycin sulfate],0.978
